± gives the standard deviation of the averaged measurements. The list shows a part of the results.
Compound: Nc1nc2c(ncn2[C@@H]2O[C@H](COP(=O)(O)OP(=O)(O)OP(=O)(O)O)[C@@H](O)[C@H]2O)c(=O)[nH]1 [guanosine triphosphate]
Assay: NP40-soluble protein abundance relative to vehicle (solubility fold change) (ratio); higher = more soluble protein in presence of GTP
Summary of the method: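 Each value is a fold change relative to the detergent-processed vehicle, calculated per replicate from vsn-normalised intensities. Jurkat crude lysate received eight concentrations (0.1 to 10 mM) for 10 min at room temperature and 3 min at 37 °C, then was solubilised in 0.8% NP40 with benzonase (60 min, 4 °C). The ultracentrifuged supernatant was TMT-labelled and run by LC-MS/MS in three independent experiments.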

Protein sequences, listed by entry. Tags and fused reporters are not part of them. Lines headed by an entry give the natural chain unless they say otherwise; changes in a name come on top.
UniProt Q15758: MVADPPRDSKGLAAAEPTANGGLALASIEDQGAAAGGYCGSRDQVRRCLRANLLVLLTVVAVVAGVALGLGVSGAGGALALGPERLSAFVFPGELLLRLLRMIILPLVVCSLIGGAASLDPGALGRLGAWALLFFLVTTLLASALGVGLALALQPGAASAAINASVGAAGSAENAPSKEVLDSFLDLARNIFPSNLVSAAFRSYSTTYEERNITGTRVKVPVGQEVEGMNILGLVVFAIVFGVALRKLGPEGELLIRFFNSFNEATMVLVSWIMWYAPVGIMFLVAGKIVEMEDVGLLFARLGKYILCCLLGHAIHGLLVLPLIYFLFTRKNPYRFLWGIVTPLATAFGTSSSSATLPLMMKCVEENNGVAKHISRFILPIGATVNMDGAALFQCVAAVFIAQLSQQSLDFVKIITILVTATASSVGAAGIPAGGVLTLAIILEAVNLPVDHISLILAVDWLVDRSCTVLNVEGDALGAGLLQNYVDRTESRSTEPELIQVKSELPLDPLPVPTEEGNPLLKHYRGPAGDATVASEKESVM
UniProt O15525: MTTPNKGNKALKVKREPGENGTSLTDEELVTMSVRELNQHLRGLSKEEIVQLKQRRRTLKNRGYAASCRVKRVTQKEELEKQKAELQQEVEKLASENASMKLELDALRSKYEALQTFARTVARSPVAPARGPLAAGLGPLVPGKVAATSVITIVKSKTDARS
UniProt O00303, whole entry: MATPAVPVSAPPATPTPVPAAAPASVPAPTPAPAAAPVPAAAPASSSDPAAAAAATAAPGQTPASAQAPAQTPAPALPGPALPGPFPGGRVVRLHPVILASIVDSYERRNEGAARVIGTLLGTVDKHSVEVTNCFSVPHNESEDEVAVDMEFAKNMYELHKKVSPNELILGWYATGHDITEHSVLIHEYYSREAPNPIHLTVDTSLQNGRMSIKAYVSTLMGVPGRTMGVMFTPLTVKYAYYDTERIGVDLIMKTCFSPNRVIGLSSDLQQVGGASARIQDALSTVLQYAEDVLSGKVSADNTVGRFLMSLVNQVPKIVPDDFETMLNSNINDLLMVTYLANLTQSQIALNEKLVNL
UniProt O43809, whole entry: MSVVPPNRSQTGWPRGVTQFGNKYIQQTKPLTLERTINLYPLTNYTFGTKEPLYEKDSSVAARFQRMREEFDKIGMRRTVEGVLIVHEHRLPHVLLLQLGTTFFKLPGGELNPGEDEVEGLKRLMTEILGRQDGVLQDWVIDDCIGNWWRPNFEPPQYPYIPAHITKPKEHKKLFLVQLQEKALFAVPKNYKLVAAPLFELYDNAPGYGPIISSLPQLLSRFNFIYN
UniProt O14530: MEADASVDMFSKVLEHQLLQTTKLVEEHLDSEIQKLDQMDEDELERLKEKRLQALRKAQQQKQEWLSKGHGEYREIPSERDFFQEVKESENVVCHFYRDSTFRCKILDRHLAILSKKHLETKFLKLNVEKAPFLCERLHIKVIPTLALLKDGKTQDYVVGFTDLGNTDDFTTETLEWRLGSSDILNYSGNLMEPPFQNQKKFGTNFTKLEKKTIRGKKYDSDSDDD
UniProt Q9NWS0, whole entry: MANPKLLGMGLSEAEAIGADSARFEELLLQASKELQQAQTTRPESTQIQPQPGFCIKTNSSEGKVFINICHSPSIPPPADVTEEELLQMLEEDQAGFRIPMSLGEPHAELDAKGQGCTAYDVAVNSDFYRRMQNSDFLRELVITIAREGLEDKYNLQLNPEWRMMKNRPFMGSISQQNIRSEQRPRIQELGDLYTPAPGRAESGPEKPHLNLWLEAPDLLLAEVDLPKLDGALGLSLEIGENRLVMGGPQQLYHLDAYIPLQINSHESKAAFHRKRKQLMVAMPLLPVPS
UniProt O00139: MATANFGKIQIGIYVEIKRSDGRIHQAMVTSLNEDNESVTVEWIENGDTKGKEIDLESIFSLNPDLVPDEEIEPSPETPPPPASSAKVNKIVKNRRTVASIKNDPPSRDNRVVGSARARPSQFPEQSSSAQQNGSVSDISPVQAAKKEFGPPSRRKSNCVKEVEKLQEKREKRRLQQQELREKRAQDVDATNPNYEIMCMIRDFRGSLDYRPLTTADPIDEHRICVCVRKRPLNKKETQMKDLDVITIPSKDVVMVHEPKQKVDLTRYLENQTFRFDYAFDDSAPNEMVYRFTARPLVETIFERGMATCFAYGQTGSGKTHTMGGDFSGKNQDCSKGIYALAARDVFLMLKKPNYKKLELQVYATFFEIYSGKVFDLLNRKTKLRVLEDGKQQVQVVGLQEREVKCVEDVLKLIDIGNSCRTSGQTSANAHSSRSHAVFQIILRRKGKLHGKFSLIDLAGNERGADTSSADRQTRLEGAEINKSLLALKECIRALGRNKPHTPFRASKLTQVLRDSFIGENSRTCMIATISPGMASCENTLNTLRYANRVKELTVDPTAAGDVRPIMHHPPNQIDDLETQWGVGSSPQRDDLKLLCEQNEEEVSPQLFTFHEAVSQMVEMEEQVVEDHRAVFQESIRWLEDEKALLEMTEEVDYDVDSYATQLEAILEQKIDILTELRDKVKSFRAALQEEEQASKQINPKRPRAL
UniProt O14828: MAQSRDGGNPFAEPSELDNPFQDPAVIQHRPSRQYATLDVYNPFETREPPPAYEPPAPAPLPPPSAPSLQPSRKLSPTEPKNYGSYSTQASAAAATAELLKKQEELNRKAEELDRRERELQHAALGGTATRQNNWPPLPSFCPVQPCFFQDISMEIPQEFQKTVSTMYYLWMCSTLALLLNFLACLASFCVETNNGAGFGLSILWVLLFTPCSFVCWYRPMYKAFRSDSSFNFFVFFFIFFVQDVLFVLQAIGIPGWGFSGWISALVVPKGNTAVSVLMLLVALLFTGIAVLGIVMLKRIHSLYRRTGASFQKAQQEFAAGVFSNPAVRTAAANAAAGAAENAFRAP
UniProt O43760: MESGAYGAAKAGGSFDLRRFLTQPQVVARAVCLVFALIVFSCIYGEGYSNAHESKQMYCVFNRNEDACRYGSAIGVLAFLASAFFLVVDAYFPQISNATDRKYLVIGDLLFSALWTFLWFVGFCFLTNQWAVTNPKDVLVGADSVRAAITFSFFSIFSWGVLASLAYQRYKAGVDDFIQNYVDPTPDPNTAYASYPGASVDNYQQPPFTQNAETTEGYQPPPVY
UniProt O00178: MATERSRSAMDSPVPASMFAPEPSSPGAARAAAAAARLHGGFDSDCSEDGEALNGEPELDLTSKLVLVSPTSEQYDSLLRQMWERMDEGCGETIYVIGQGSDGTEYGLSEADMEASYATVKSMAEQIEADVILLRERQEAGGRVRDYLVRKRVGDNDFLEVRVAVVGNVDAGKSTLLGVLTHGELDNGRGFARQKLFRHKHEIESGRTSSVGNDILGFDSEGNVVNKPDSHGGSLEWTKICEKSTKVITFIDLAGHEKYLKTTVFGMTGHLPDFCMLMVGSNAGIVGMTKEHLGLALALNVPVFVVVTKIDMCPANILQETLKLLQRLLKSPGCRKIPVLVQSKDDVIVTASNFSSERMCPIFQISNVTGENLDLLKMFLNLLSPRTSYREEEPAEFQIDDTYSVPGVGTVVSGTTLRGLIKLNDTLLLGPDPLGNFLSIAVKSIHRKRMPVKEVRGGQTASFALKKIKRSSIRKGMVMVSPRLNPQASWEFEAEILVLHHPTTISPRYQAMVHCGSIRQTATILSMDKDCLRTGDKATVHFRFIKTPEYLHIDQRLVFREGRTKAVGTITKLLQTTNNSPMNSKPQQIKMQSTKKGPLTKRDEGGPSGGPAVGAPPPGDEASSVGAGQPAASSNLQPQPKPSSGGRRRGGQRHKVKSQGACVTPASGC
UniProt O43920, whole entry: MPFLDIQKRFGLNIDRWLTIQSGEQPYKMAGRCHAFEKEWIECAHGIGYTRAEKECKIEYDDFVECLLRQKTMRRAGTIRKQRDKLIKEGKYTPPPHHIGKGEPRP
UniProt O60870: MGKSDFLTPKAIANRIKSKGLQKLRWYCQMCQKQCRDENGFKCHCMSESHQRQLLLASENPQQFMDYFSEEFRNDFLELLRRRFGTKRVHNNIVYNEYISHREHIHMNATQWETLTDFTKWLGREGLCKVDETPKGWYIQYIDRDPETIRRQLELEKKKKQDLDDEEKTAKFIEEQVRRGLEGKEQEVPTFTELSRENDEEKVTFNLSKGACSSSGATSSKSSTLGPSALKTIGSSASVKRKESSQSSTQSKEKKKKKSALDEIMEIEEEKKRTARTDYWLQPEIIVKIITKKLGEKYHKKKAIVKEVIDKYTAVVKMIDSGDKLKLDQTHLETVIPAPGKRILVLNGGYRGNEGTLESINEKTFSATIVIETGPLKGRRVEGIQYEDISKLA
UniProt O14497, whole entry: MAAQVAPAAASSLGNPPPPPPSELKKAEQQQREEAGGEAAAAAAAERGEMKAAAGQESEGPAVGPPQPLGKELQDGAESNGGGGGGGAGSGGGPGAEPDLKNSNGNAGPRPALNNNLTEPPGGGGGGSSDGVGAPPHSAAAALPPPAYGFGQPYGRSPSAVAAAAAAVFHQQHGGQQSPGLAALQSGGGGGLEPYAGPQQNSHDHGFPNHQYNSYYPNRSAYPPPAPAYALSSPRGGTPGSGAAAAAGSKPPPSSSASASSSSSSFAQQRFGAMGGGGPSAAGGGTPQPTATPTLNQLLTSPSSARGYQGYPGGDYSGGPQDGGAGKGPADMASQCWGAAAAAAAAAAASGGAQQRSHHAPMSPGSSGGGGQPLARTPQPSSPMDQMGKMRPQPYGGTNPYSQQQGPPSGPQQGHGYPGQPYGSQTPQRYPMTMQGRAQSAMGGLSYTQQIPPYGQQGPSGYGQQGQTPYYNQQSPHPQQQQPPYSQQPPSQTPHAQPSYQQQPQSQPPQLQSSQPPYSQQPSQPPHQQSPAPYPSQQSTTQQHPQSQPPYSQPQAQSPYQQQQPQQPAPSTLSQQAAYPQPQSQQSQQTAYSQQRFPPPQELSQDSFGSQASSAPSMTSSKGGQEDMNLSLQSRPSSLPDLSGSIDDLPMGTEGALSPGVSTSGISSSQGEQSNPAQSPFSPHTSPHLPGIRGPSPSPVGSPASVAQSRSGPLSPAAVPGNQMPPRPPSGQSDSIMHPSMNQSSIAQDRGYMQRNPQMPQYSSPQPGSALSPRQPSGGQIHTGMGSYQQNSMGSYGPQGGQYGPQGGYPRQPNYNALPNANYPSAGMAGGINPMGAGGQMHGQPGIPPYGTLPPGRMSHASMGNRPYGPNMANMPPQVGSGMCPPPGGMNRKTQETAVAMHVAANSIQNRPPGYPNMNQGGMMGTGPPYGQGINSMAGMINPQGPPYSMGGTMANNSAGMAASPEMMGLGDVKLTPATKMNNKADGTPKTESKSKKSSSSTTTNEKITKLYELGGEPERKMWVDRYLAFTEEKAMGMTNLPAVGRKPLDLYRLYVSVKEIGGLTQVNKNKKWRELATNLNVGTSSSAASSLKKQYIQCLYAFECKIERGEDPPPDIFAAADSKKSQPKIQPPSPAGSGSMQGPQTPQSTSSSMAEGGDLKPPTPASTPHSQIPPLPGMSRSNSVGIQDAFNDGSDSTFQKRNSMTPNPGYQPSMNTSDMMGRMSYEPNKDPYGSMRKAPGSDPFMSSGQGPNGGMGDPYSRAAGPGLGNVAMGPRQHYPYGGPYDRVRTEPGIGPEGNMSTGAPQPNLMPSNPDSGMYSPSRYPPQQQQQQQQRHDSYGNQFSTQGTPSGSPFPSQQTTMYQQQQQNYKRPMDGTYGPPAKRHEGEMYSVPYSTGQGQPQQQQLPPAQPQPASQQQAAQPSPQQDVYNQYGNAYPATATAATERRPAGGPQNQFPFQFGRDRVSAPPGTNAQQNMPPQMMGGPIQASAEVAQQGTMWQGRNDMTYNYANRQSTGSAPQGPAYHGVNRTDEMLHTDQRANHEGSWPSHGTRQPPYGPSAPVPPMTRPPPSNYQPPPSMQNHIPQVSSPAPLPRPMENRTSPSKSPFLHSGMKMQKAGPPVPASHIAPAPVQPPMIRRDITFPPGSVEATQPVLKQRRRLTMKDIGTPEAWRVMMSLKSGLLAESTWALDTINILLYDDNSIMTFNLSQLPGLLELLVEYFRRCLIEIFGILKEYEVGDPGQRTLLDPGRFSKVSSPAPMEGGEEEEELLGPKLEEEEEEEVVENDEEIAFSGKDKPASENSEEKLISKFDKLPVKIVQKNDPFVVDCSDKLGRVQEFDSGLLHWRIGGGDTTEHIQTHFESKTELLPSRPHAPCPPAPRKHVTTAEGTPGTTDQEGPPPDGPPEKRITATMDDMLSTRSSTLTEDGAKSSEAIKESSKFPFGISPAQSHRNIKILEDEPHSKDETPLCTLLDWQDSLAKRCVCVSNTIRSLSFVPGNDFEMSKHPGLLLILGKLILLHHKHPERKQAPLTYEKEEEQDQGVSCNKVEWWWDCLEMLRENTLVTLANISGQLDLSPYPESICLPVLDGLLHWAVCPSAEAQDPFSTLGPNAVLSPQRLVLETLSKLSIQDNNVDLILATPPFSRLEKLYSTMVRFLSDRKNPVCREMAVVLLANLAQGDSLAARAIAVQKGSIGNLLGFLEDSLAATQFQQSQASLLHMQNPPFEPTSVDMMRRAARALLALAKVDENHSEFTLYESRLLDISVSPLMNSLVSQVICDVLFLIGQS

Target	NP40-soluble protein abundance (concentration: 0.1mM)	NP40-soluble protein abundance (concentration: 0.5mM)	NP40-soluble protein abundance (concentration: 1mM)	NP40-soluble protein abundance (concentration: 2mM)	NP40-soluble protein abundance (concentration: 4mM)	NP40-soluble protein abundance (concentration: 6mM)	NP40-soluble protein abundance (concentration: 8mM)	NP40-soluble protein abundance (concentration: 10mM)
M0QXM4 and related entries (UniProt Q15758)	0.949 ± 0.042	0.89 ± 0.09	0.933 ± 0.13	0.907 ± 0.1	0.913 ± 0.11	0.928 ± 0.096	0.919 ± 0.085	0.945 ± 0.12
BACH1 (UniProt O14867)	1.03 ± 0.046	1.01 ± 0.031	0.981 ± 0.018	0.966 ± 0.025	0.98 ± 0.022	0.985 ± 0.037	0.997 ± 0.075	0.999 ± 0.065
UniProt O43684 and related entries	1.013 ± 0.005	1.05 ± 0.046	1 ± 0.029	0.981 ± 0.03	0.993 ± 0.018	1.01 ± 0.032	1.02 ± 0.051	0.978 ± 0.033
MAFG (UniProt O15525)	0.92 ± 0.12	0.905 ± 0.035	1.04 ± 0.11	1 ± 0.15	1.05 ± 0.1	0.988 ± 0.053	0.973 ± 0.065	1.11 ± 0.096
EIF3F (UniProt O00303)	0.994 ± 0.048	0.992 ± 0.01	1.04 ± 0.045	1.06 ± 0.075	1.15 ± 0.12	1.23 ± 0.14	1.29 ± 0.12	1.44 ± 0.18
NUDT21 (UniProt O43809)	1.11 ± 0.12	1.39 ± 0.12	1.64 ± 0.21	1.86 ± 0.31	2.02 ± 0.39	2.04 ± 0.35	1.97 ± 0.25	2.07 ± 0.44
M0QYP2 and related entries (UniProt Q9UBE0)	0.999 ± 0.04	1 ± 0.041	0.943 ± 0.039	0.923 ± 0.057	0.9 ± 0.069	0.91 ± 0.056	0.896 ± 0.045	0.87 ± 0.069
UniProt O14545 and related entries	1.09 ± 0.079	1.01 ± 0.049	1.08 ± 0.15	1.05 ± 0.062	1.04 ± 0.14	1.07 ± 0.11	1.06 ± 0.099	1.03 ± 0.13
UniProt O00267 and related entries	1.02 ± 0.035	1.04 ± 0.054	0.974 ± 0.023	0.991 ± 0.04	0.969 ± 0.036	0.967 ± 0.058	0.945 ± 0.035	0.941 ± 0.019
TXNDC9 (UniProt O14530)	1.05 ± 0.082	1.13 ± 0.11	1.11 ± 0.13	1.15 ± 0.22	1.13 ± 0.21	1.15 ± 0.23	1.1 ± 0.18	1.1 ± 0.2
M0QYA2 and related entries (UniProt Q9NWS0)	0.987 ± 0.018	0.966 ± 0.029	0.979 ± 0.041	1.06 ± 0.037	1.07 ± 0.092	1.02 ± 0.057	1.01 ± 0.061	1.06 ± 0.051
UniProt O43303 and related entries	1.03 ± 0.11	0.98 ± 0.11	1.09 ± 0.092	1.06 ± 0.19	1.1 ± 0.29	1.09 ± 0.21	1.09 ± 0.22	1.06 ± 0.18
MPHOSPH10 (UniProt O00566)	0.911 ± 0.042	0.908 ± 0.089	0.988 ± 0.033	0.958 ± 0.054	0.983 ± 0.038	1 ± 0.055	0.987 ± 0.086	1.04 ± 0.048
UniProt O00139 and related entries	0.996 ± 0.017	0.972 ± 0.025	0.908 ± 0.032	0.924 ± 0.019	0.929 ± 0.03	0.942 ± 0.031	0.966 ± 0.018	0.944 ± 0.043
UniProt O60524 and related entries	0.953 ± 0.02	0.949 ± 0.069	0.955 ± 0.075	1.06 ± 0.065	1.08 ± 0.011	1.15 ± 0.072	1.16 ± 0.05	1.26 ± 0.053
UniProt O43379-4|O43379	0.984 ± 0.03	1.02 ± 0.07	0.964 ± 0.02	0.991 ± 0.045	0.986 ± 0.029	0.994 ± 0.027	0.993 ± 0.067	0.964 ± 0.025
UniProt O14828 and related entries	0.943 ± 0.032	0.912 ± 0.11	0.918 ± 0.061	0.88 ± 0.091	0.887 ± 0.051	0.867 ± 0.099	0.887 ± 0.017	0.882 ± 0.094
UniProt O00499 and related entries	0.808 ± 0.12	0.793 ± 0.097	0.824 ± 0.13	0.789 ± 0.11	0.798 ± 0.12	0.767 ± 0.097	0.771 ± 0.082	0.8 ± 0.13
MAFK (UniProt O60675)	0.715 ± 0.09	0.828 ± 0.1	0.792 ± 0.086	0.885 ± 0.11	0.781 ± 0.058	0.882 ± 0.093	0.806 ± 0.028	1.05 ± 0.067
UniProt O43760 and related entries	0.957 ± 0.086	0.909 ± 0.12	0.911 ± 0.076	0.915 ± 0.083	0.908 ± 0.088	0.852 ± 0.11	0.843 ± 0.15	0.884 ± 0.091
GTPBP1 (UniProt O00178)	1 ± 0.052	1.01 ± 0.041	0.963 ± 0.052	0.963 ± 0.039	0.966 ± 0.051	0.979 ± 0.036	1 ± 0.079	0.976 ± 0.045
UniProt O00506	1.05 ± 0.029	1.04 ± 0.051	1.01 ± 0.051	1.03 ± 0.062	0.994 ± 0.02	0.973 ± 0.056	0.997 ± 0.03	1.02 ± 0.041
UniProt O43929 and related entries	1.07 ± 0.13	1.03 ± 0.12	0.989 ± 0.11	0.917 ± 0.1	0.961 ± 0.12	0.984 ± 0.082	0.994 ± 0.11	0.952 ± 0.12
NDUFS5 (UniProt O43920)	0.989 ± 0.13	0.976 ± 0.11	1.16 ± 0.18	1.22 ± 0.15	1.18 ± 0.19	1.17 ± 0.15	1.19 ± 0.21	1.19 ± 0.19
UniProt O15258 and related entries	0.957 ± 0.074	0.993 ± 0.041	0.895 ± 0.091	0.933 ± 0.038	0.925 ± 0.073	0.86 ± 0.067	0.862 ± 0.1	0.894 ± 0.03
KIN (UniProt O60870)	0.9988 ± 0.0042	0.993 ± 0.013	0.9497 ± 0.0058	0.929 ± 0.029	0.916 ± 0.021	0.908 ± 0.024	0.9015 ± 0.007	0.885 ± 0.053
UniProt O60711 and related entries	1.04 ± 0.084	1.06 ± 0.071	0.994 ± 0.073	0.997 ± 0.12	0.98 ± 0.086	0.969 ± 0.11	0.969 ± 0.088	0.974 ± 0.12
ARID1A (UniProt O14497)	0.993 ± 0.031	1.06 ± 0.016	1.08 ± 0.055	1.08 ± 0.084	1.1 ± 0.1	1.12 ± 0.12	1.16 ± 0.17	1.13 ± 0.17
POLR3A (UniProt O14802)	1.09 ± 0.14	1.11 ± 0.17	1.09 ± 0.14	1.16 ± 0.24	1.15 ± 0.21	1.12 ± 0.21	1.09 ± 0.18	1.05 ± 0.2
ARPC1B (UniProt O15143)	1 ± 0.045	1.04 ± 0.056	0.933 ± 0.034	0.942 ± 0.062	0.928 ± 0.056	0.948 ± 0.04	0.923 ± 0.017	0.887 ± 0.012

Another view of some results above:
Target,NP40-soluble protein abundance (concentration: 0.1mM),NP40-soluble protein abundance (concentration: 0.5mM),NP40-soluble protein abundance (concentration: 1mM),NP40-soluble protein abundance (concentration: 2mM),NP40-soluble protein abundance (concentration: 4mM),NP40-soluble protein abundance (concentration: 6mM),NP40-soluble protein abundance (concentration: 8mM),NP40-soluble protein abundance (concentration: 10mM)
UniProt O43303 and related entries,1.03 ± 0.11,0.98 ± 0.11,1.09 ± 0.092,1.06 ± 0.19,1.1 ± 0.29,1.09 ± 0.21,1.09 ± 0.22,1.06 ± 0.18
ARID1A (UniProt O14497),0.993 ± 0.031,1.06 ± 0.016,1.08 ± 0.055,1.08 ± 0.084,1.1 ± 0.1,1.12 ± 0.12,1.16 ± 0.17,1.13 ± 0.17
